Results published in PMC5008010.
No constants are given. Whether binding was seen depends on the method and setting. Binding seen in cells or lysates may run through a third protein. A yes stands for co-enrichment or nearness to the bait. Other partners may have been found. Sequences can lack the tags named with a protein.

The chains behind the UniProt entries cited, without tags or fusion partners. Residues count along the entry.
UniProt P02545, residues 1-646: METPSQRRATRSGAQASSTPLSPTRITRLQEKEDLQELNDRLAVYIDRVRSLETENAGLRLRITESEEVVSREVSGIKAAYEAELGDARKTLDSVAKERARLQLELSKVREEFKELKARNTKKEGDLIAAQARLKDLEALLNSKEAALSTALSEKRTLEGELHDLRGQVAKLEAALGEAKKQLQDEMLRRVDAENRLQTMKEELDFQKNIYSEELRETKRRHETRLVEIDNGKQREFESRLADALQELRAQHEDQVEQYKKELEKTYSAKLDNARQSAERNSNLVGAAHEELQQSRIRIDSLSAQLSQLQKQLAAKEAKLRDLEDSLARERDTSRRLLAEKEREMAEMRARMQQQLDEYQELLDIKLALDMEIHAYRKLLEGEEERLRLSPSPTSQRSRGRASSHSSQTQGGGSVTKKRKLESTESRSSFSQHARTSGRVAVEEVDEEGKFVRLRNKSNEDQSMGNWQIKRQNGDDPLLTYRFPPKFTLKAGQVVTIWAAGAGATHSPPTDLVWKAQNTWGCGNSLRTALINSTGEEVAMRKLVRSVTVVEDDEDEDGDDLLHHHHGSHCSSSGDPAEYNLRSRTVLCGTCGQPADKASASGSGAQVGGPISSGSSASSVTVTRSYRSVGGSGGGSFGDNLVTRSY
UniProt P20700: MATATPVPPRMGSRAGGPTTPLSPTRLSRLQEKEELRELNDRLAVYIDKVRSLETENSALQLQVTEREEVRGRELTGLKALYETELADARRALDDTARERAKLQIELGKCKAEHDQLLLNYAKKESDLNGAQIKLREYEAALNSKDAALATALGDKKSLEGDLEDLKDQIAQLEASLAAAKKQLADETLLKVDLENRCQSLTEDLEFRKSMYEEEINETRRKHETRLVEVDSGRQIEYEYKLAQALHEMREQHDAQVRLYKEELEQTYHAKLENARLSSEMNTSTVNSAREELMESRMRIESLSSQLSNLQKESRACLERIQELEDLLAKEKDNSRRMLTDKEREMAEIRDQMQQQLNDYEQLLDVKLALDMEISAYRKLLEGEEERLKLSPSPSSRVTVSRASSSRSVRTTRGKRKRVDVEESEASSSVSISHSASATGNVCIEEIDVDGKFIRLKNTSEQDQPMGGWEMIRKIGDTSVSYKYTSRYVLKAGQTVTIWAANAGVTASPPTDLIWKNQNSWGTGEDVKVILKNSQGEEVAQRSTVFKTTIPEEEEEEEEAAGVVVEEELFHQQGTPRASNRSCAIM

B1: matrin 3 (protein, UniProt P43243 1-847)
chain: MSKSFQQSSLSRDSQGHGRDLSAAGIGLLAAATQSLSMPASLGRMNQGTARLASLMNLGMSSSLNQQGAHSALSSASTSSHNLQSIFNIGSRGPLPLSSQHRGDADQASNILASFGLSARDLDELSRYPEDKITPENLPQILLQLKRRRTEEGPTLSYGRDGRSATREPPYRVPRDDWEEKRHFRRDSFDDRGPSLNPVLDYDHGSRSQESGYYDRMDYEDDRLRDGERCRDDSFFGETSHNYHKFDSEYERMGRGPGPLQERSLFEKKRGAPPSSNIEDFHGLLPKGYPHLCSICDLPVHSNKEWSQHINGASHSRRCQLLLEIYPEWNPDNDTGHTMGDPFMLQQSTNPAPGILGPPPPSFHLGGPAVGPRGNLGAGNGNLQGPRHMQKGRVETSRVVHIMDFQRGKNLRYQLLQLVEPFGVISNHLILNKINEAFIEMATTEDAQAAVDYYTTTPALVFGKPVRVHLSQKYKRIKKPEGKPDQKFDQKQELGRVIHLSNLPHSGYSDSAVLKLAEPYGKIKNYILMRMKSQAFIEMETREDAMAMVDHCLKKALWFQGRCVKVDLSEKYKKLVLRIPNRGIDLLKKDKSRKRSYSPDGKESPSDKKSKTDGSQKTESSTEGKEQEEKSGEDGEKDTKDDQTEQEPNMLLESEDELLVDEEEAAALLESGSSVGDETDLANLGDVASDGKKEPSDKAVKKDGSASAAAKKKLKKVDKIEELDQENEAALENGIKNEENTEPGAESSENADDPNKDTSENADGQSDENKDDYTIPDEYRIGPYQPNVPVGIDYVIPKTGFYCKLCSLFYTNEEVAKNTHCSSLPHYQKLKKFLNKLAEERRQKKET
B2: lamin B2 (protein, UniProt Q03252 1-620)
chain: MSPPSPGRRREQRRPRAAATMATPLPGRAGGPATPLSPTRLSRLQEKEELRELNDRLAHYIDRVRALELENDRLLLKISEKEEVTTREVSGIKALYESELADARRVLDETARERARLQIEIGKLRAELDEVNKSAKKREGELTVAQGRVKDLESLFHRSEVELAAALSDKRGLESDVAELRAQLAKAEDGHAVAKKQLEKETLMRVDLENRCQSLQEELDFRKSVFEEEVRETRRRHERRLVEVDSSRQQEYDFKMAQALEELRSQHDEQVRLYKLELEQTYQAKLDSAKLSSDQNDKAASAAREELKEARMRLESLSYQLSGLQKQASAAEDRIRELEEAMAGERDKFRKMLDAKEQEMTEMRDVMQQQLAEYQELLDVKLALDMEINAYRKLLEGEEERLKLSPSPSSRVTVSRATSSSSGSLSATGRLGRSKRKRLEVEEPLGSGPSVLGTGTGGSGGFHLAQQASASGSVSIEEIDLEGKFVQLKNNSDKDQSLGNWRIKRQVLEGEEIAYKFTPKYILRAGQMVTVWAAGAGVAHSPPSTLVWKGQSSWGTGESFRTVLVNADGEEVAMRTVKKSSVMRENENGEEEEEEAEFGEEDLFHQQGDPRTTSRGCYVM

These molecules were tested against T1, AKTIP-FLAG fusion protein (UniProt Q9H8T0) (assay: affinity purification with mass spectrometry; anti-FLAG M2 antibody on G-sepharose beads, 2 mg whole-cell extract of 293T cells transfected with AKTIP-FLAG (72 h); lysis buffer 20 mM Hepes pH 7.5, 150 mM NaCl, 5 mM MgCl2, 0.5 mM EGTA, 0.25% NP-40; mouse IgG as control; LC-MS/MS of gel slices; three independent experiments).
T1 sequence: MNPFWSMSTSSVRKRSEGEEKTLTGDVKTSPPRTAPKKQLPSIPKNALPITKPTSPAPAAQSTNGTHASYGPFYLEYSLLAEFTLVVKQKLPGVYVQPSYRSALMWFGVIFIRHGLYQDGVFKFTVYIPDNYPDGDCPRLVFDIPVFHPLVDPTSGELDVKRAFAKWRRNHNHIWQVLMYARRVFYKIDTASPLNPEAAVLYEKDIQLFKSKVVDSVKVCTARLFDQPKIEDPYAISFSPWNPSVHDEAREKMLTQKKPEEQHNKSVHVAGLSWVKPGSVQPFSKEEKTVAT

binding, binds:
lamin A/C (from UniProt P02545 1-646)
lamin B1 (from UniProt P20700 1-586)
B1
B2
